Some results were stated once for a whole list of compounds, not compound by compound.
Test system: A. baumannii strain CDC-313
Assay: Neutropenic mouse lung infection model
Type: in vivo
Conditions: neutropenic CD-1 male mice, subcutaneous q6 hr from 2 hours post-infection, 26 hours post-infection, FIG. 15

SMILES	reduction in bacterial CFUs relative to CFUs present at the initiation of therapy
C[C@H](N)[C@@H]1CC[C@@H](N)[C@@H](O[C@@H]2[C@@H](N)[C@H](O)[C@@H](NC(=O)[C@@H](O)[C@H](F)CN)[C@H](O)[C@H]2O[C@@H]2O[C@H](CO)[C@@H](O[C@H]3O[C@@H](CN)[C@@H](O)[C@H](O)[C@H]3N)[C@H]2O)O1 [Compound 3, (2R,3R)-4-amino-N-((1R,2S,3S,4R,5R,6S)-3-amino-4-(((2R,3R,6S)-3-amino-6-((S)-1-aminoethyl)tetrahydro-2H-pyran-2-yl)oxy)-5-(((2S,3R,4S,5R)-4-(((2R,3R,4R,5S,6S)-3-amino-6-(aminomethyl)-4,5-dihydroxytetrahydro-2H-pyran-2-yl)oxy)-3-hydroxy-5-(hydroxymethyl)tetrahydrofuran-2-yl)oxy)-2,6-dihydroxycyclohexyl)-3-fluoro-2-hydroxybutanamide]	greater than 2 log
C[C@H](N)[C@@H]1CC[C@@H](N)[C@@H](O[C@@H]2[C@@H](N)[C@H](O)[C@@H](NC(=O)[C@@H](O)CCN)[C@H](O)[C@H]2O[C@@H]2O[C@H](CO)[C@@H](O[C@H]3O[C@@H](CN)[C@@H](O)[C@H](O)[C@H]3N)[C@H]2O)O1 [Compound 6, (S)-4-Amino-N-((1R,2S,3S,4R,5R,6S)-3-Amino-4-(((2R,3R,6S)-3-Amino-6-((S)-1-Aminoethyl)Tetrahydro-2H-Pyran-2-Yl)Oxy)-5-(((2S,3R,4S,5R)-4-(((2R,3R,4R,5S,6S)-3-Amino-6-(Aminomethyl)-4,5-Dihydroxytetrahydro-2H-Pyran-2-Yl)Oxy)-3-Hydroxy-5-(Hydroxymethyl)Tetrahydrofuran-2-Yl)Oxy)-2,6-Dihydroxycyclohexyl)-2-Hydroxybutanamide]	greater than 2 log

From patent US20250032524A1, “BROAD SPECTRUM AMINOGLYCOSIDES AND USES THEREOF” (REVAGENIX, INC., priority 2022, published 2025)
